Values from PubChem BioAssay AID1259254 (NCATS, 2017).
This is one part, drawn at random, of about 59,000 reagents. In the full data, about 1,550 (2.6%) were called active. 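G2 share is only a proxy for re-replication; each gene was hit by three separate siRNAs, and active genes were retested.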 A number with no mark means an inactive call. Reagents against one gene are numbered here. Further read-outs or replicates are left out here. The record does not give: the amount of reagent.

Screen: 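Genome-wide screen for genes that prevent DNA re-replication in cancer cells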 (primary screen)
Cells: human HCT116 colorectal cancer cells
Reagent: single siRNA against human genes
Time to read-out: 3 days
Measurement: 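Imaged Hoechst DNA stain sorts each cell into a cycle phase by DNA amount; per plate, G2 fraction set to 0% for non-targeting and 100% for GMNN siRNA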
Scale: G2 robust z-score and G2 cells, % of GMNN control: higher = more G2 cells, more excess DNA replication
Call rule: 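An siRNA counts as active if its G2 robust z-score lies at least 5 MADs above the screen median; here such calls match roughly 38% of GMNN control or more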

With SFT2D2 #1, what does the deposit list?
G2 robust z-score: -0.658; G2 cells, % of GMNN control: -1.66

For SFT2D2 #2, how do the results read?
G2 robust z-score: -0.626; G2 cells, % of GMNN control: -1.44

What did the screen give for SFT2D2 #3?
G2 robust z-score: 0.685; G2 cells, % of GMNN control: 7.79

With ZNF404 #1, what was measured?
G2 robust z-score: -0.217; G2 cells, % of GMNN control: 1.44

For ZNF404 #2, how do the results read?
G2 robust z-score: 0.135; G2 cells, % of GMNN control: 3.92

For ZNF404 #3, what was measured?
G2 robust z-score: 1.35; G2 cells, % of GMNN control: 12.5

Which result is listed for HNRNPA1P4 #1?
G2 robust z-score: -0.425; G2 cells, % of GMNN control: -0.021

With HNRNPA1P4 #2, what was measured?
G2 robust z-score: 0.0348; G2 cells, % of GMNN control: 3.21

With HNRNPA1P4 #3, what was measured?
G2 robust z-score: -0.653; G2 cells, % of GMNN control: -1.62

With MAGEA9 #1, what was measured?
G2 robust z-score: -0.397; G2 cells, % of GMNN control: 0.175

With MAGEA9 #2, what was measured?
G2 robust z-score: -0.17; G2 cells, % of GMNN control: 1.77

What did the screen give for MAGEA9 #3?
G2 robust z-score: -0.0767; G2 cells, % of GMNN control: 2.43

3 neighbouring entries from above, quoted:
HNRNPA1P4 #1 → G2 robust z-score = -0.425; G2 cells, % of GMNN control = -0.021
HNRNPA1P4 #2 → G2 robust z-score = 0.0348; G2 cells, % of GMNN control = 3.21
HNRNPA1P4 #3 → G2 robust z-score = -0.653; G2 cells, % of GMNN control = -1.62

Continued.
What did the screen give for RD3 #1?
G2 robust z-score: 2.83; G2 cells, % of GMNN control: 22.9

For RD3 #2, what does the deposit list?
G2 robust z-score: 2.04; G2 cells, % of GMNN control: 17.3

Which result is listed for RD3 #3?
G2 robust z-score: 2.64; G2 cells, % of GMNN control: 21.5

How did the screen score RAB26 #1?
G2 robust z-score: 6.58 (active); G2 cells, % of GMNN control: 49.3

How did the screen score RAB26 #2?
G2 robust z-score: 0.229; G2 cells, % of GMNN control: 4.58

How did the screen score RAB26 #3?
G2 robust z-score: 2.34; G2 cells, % of GMNN control: 19.4
